Reference: PMC6482174, “Fragment-based screening identifies inhibitors of ATPase activity and of hexamer formation of Cagα from the Helicobacter pylori type IV secretion system” (Scientific Reports, 2019)
Where “and” joins values, the source holds several entries; their conditions need not be identical. Equal entries are not always repeated. Where two headings read alike, the source gives them in different places.

Columns and labels:
Cagα oligomers = assay: Chemical cross-linking with DSS, SDS-PAGE and western blot; set-up: species or system Helicobacter pylori; settings: with MgCl2
Cagα hexamer = assay: Analytical gel filtration (Superdex 200); set-up: species or system Helicobacter pylori; settings: for Effect on the Cagα hexamer: gel filtration and EM
Cagα = settings: apoprotein Tm 37 °C
[1] = Cagα pre-incubated with 2 mM molecule 30 min, apoprotein 244 kDa
[2] = Cagα pre-incubated with 2 mM molecule, apoprotein 1.74 ml

Question: For `O=C(O)c1ccc(Oc2ccccn2)cc1` [1G2], which “Formation of higher molecular mass cross-linking products” value (shortened to “Formation”) (Cagα oligomers) is on record?
Answer: The value was “reduced amount of higher molecular mass complexes”.

Question: What about the “Apparent molecular mass, peak A” value (Cagα hexamer; [1]) of the same compound?
Answer: The value was 175 kDa and 175.5 kDa.

Question: And the “Apparent molecular mass, peak B” value (Cagα hexamer; [1])?
Answer: Its value is 54 kDa.

Question: And the “Elution Volume, peak A” value (Cagα hexamer; [2])?
Answer: Its value is 1.83 mL.

Question: And the “Elution Volume, peak B” value (Cagα hexamer; [2])?
Answer: Its value is 2.14 mL.

Question: And the “Effect on the Cagα hexamer” value (Cagα hexamer)?
Answer: Its value is “dissociates the Cagα hexamer into lower molecular mass species”.

Question: How did the “Formation” value (Cagα oligomers) turn out when `Nc1ncnc2c1ncn2[C@@H]1O[C@H](COP(=O)(O)OP(=O)(O)O)[C@@H](O)[C@H]1O` [ADP] was run?
Answer: Its value is “increased amounts of higher molecular mass products”.

Question: For `Nc1ncnc2c1ncn2[C@@H]1O[C@H](CO[P@](=O)(O)O[P@](=O)(O)O[P@@](=O)(O)S)[C@@H](O)[C@H]1O` [ATP-γ-S, reference compound], which “Formation” value (Cagα oligomers) is on record?
Answer: Its value is “reduced amount of higher molecular mass complexes”.

Question: What about the “Elution Volume, single peak” value (Cagα hexamer; [2]) of the same compound?
Answer: Its value is 1.74 mL.

Question: And the “MW, single peak” value (Cagα hexamer; Cagα pre-incubated with 2 mM molecule, apoprotein 244.1 kDa)?
Answer: The value was 244.1 kDa.

Question: What about the “Effect on the Cagα hexamer” value (Cagα hexamer) of the same compound?
Answer: Its value is “does not dissociate the hexamer”.

Question: What about the “Melting temperature (Tm) of Cagα” value (Cagα; Cagα with MgCl2 and the nucleotide, nucleotides 5 mM) of the same compound?
Answer: The value was 60 °C.

Question: `[Cl-].[Cl-].[Mg+2]` [MgCl2] was tested. Which “Melting temperature (Tm) of Cagα” value (Cagα; Cagα and metal cofactor MgCl2) did it give?
Answer: Its value is 42 °C.
